Reference: patent US20260256792A1, “TREATMENT OF CHRONIC SPONTANEOUS URTICARIA BY ADMINISTERING (R)-2-[3-[4-AMINO-3-(2-FLUORO-4-PHENOXY-PHENYL)PYRAZOLO[3,4-D]PYRIMIDIN-1-YL]PIPERIDINE-1-CARBONYL]-4-METHYL-4-[4-(OXETAN-3-YL)PIPERAZIN-1-YL]PENT-2-ENENITRILE” (priority 2023, published 2026)
Further values from the same series stand in other lists.

Test system: moderate-to-severe chronic spontaneous urticaria (CSU)
Test: Phase 2 CSU study: urticaria activity score over 7 days (UAS7)
Assay type: in vivo, human
Set-up: key to UAS7 Change from baseline LS Mean (SE): UAS7 points; daily UAS score ranges 0–6 points/day, over 7 days
Details: Omalizumab-Naïve Population with Outlier Removed
Excerpt: The study comprises a 12 week, randomized, double-blind, placebo-controlled, multi-center, dose-ranging efficacy and safety phase, followed by a 40 week open label extension (OLE) phase (see FIG. 1). The study consists of three phases and an optional OLE phase. […] Clinically, CSU is characterized by the spontaneous and recurrent appearance of pruritic hives. The proposed primary endpoints were the UAS7 at Week 12 in EU and EU reference countries and the ISS7 in the US. Regardless of where a participant was from, all assessments were the same. The UAS7 score is a composite score containing both the HSS7 and the ISS7. This allowed a global assessment of the two key components of urticaria: hives and itch. […] The UAS is a validated PRO measure. […] The daily UAS scores range from 0 to 6 point/day. […] Patients were to complete the UAS using the e-diary. […] The following secondary endpoints were to be analyzed using the same approach as for the primary endpoint: • Change from baseline in UAS7 at Week 4 • Change from baseline in UAS7 at Week 12 (for US and US reference countries) • Change from baseline in ISS7 at Week 12 (except US and US reference countries) • Change from baseline in HSS7 at Week 12 The following responder secondary endpoints were to be analyzed using the Cochran-Mantel-Haenszel test adjusted by region: • Proportion of participants with UAS7<6 at Week 12 • Proportion of participants with UAS7=0 at Week 12 Participants who received selected prohibited medications and/or rescue medications were to be considered as non-responders for time points after the medication usage. For other participants, all available data including those collected during the off-treatment period were to be used to determine the responder/non-responder status. Missing data were to be considered as non-responders.

CC(C)(C=C(C#N)C(=O)N1CCC[C@@H](n2nc(-c3ccc(Oc4ccccc4)cc3F)c3c(N)ncnc32)C1)N1CCN(C2COC2)CC1 [rilzabrutinib, (R)-2-[3-[4-amino-3-(2-fluoro-4-phenoxy-phenyl)pyrazolo[3,4-d]pyrimidin-1-yl]piperidine-1-carbonyl]-4-methyl-4-[4-(oxetan-3-yl)piperazin-1-yl]pent-2-enenitrile]
UAS7 % Change difference for rilzabrutinib vs. placebo LS Mean (95% CI) (400 mg BID, Week 1): −25.02 %
UAS7 % Change from baseline LS Mean (SE) (400 mg BID, Week 1): −34.55 (5.64) %
UAS7 Change difference for rilzabrutinib vs. placebo LS Mean (95% CI) (400 mg BID, Week 1): −6.25 (−11.33, −1.16)
UAS7 Change from baseline LS Mean (SE) (400 mg BID, Week 1): −9.85 (1.58)
UAS7 % Change difference for rilzabrutinib vs. placebo LS Mean (95% CI) (400 mg BID, Week 2): −18.63 %
UAS7 % Change from baseline LS Mean (SE) (400 mg BID, Week 2): −36.40 (5.49) %
UAS7 Change difference for rilzabrutinib vs. placebo LS Mean (95% CI) (400 mg BID, Week 2): −4.57 (−8.75, −0.39)
UAS7 % Change difference for rilzabrutinib vs. placebo LS Mean (95% CI) (400 mg BID, Week 3): −20.05 %
UAS7 % Change from baseline LS Mean (SE) (400 mg BID, Week 3): −40.21 (5.67) %
UAS7 Change difference for rilzabrutinib vs. placebo LS Mean (95% CI) (400 mg BID, Week 3): −5.12 (−9.46, −0.78)
UAS7 Change from baseline LS Mean (SE) (400 mg BID, Week 3): −11.96 (1.63)
UAS7 % Change difference for rilzabrutinib vs. placebo LS Mean (95% CI) (400 mg BID, Week 4): −22.88 %
UAS7 % Change from baseline LS Mean (SE) (400 mg BID, Week 4): −43.62 (5.90) %
UAS7 Change difference for rilzabrutinib vs. placebo LS Mean (95% CI) (400 mg BID, Week 4): −5.82 (−10.34, −1.30)
UAS7 Change from baseline LS Mean (SE) (400 mg BID, Week 4): −12.88 (1.70)
UAS7 % Change from baseline LS Mean (SE) (400 mg BID, Week 5): −41.62 (5.69) %
UAS7 Change difference for rilzabrutinib vs. placebo LS Mean (95% CI) (400 mg BID, Week 5): −1.59 (−6.13, 2.96)
UAS7 Change from baseline LS Mean (SE) (400 mg BID, Week 5): −12.04 (1.71)
UAS7 % Change difference for rilzabrutinib vs. placebo LS Mean (95% CI) (400 mg BID, Week 6): −14.22 %
UAS7 % Change from baseline LS Mean (SE) (400 mg BID, Week 6): −41.32 (6.30) %
UAS7 Change difference for rilzabrutinib vs. placebo LS Mean (95% CI) (400 mg BID, Week 6): −2.96 (−7.92, 2.01)
UAS7 Change from baseline LS Mean (SE) (400 mg BID, Week 6): −12.20 (1.86)
UAS7 % Change difference for rilzabrutinib vs. placebo LS Mean (95% CI) (400 mg BID, Week 7): −18.59 %
UAS7 % Change from baseline LS Mean (SE) (400 mg BID, Week 7): −47.24 (5.95) %
UAS7 Change difference for rilzabrutinib vs. placebo LS Mean (95% CI) (400 mg BID, Week 7): −4.50 (−9.19, 0.19)
UAS7 Change from baseline LS Mean (SE) (400 mg BID, Week 7): −14.01 (1.76)
UAS7 % Change difference for rilzabrutinib vs. placebo LS Mean (95% CI) (400 mg BID, Week 8): −22.01 %
UAS7 % Change from baseline LS Mean (SE) (400 mg BID, Week 8): −53.10 (6.28) %
UAS7 Change difference for rilzabrutinib vs. placebo LS Mean (95% CI) (400 mg BID, Week 8): −5.41 (−10.40, −0.43)
UAS7 Change from baseline LS Mean (SE) (400 mg BID, Week 8): −15.43 (1.86)
UAS7 % Change difference for rilzabrutinib vs. placebo LS Mean (95% CI) (400 mg BID, Week 9): −25.22 %
UAS7 % Change from baseline LS Mean (SE) (400 mg BID, Week 9): −52.05 (6.41) %
UAS7 Change difference for rilzabrutinib vs. placebo LS Mean (95% CI) (400 mg BID, Week 9): −6.02 (−11.15, −0.89)
UAS7 Change from baseline LS Mean (SE) (400 mg BID, Week 9): −14.88 (1.92)
UAS7 % Change difference for rilzabrutinib vs. placebo LS Mean (95% CI) (400 mg BID, Week 10): −21.34 %
UAS7 % Change from baseline LS Mean (SE) (400 mg BID, Week 10): −51.72 (6.74) %
UAS7 Change difference for rilzabrutinib vs. placebo LS Mean (95% CI) (400 mg BID, Week 10): −5.41 (−10.69, −0.13)
UAS7 Change from baseline LS Mean (SE) (400 mg BID, Week 10): −15.06 (1.99)
UAS7 % Change difference for rilzabrutinib vs. placebo LS Mean (95% CI) (400 mg BID, Week 11): −21.48 %
UAS7 % Change from baseline LS Mean (SE) (400 mg BID, Week 11): −49.79 (6.87) %
UAS7 Change difference for rilzabrutinib vs. placebo LS Mean (95% CI) (400 mg BID, Week 11): −5.15 (−10.44, 0.15)
UAS7 Change from baseline LS Mean (SE) (400 mg BID, Week 11): −14.46 (1.99)
UAS7 % Change difference for rilzabrutinib vs. placebo LS Mean (95% CI) (400 mg BID, Week 12): −18.45 %
UAS7 % Change from baseline LS Mean (SE) (400 mg BID, Week 12): −49.10 (7.03) %
UAS7 Change difference for rilzabrutinib vs. placebo LS Mean (95% CI) (400 mg BID, Week 12): −4.29 (−9.74, 1.16)
UAS7 Change from baseline LS Mean (SE) (400 mg BID, Week 12): −14.30 (2.06)
UAS7 % Change difference for rilzabrutinib vs. placebo LS Mean (95% CI) (400 mg QPM, Week 1): −12.25 %
UAS7 % Change from baseline LS Mean (SE) (400 mg QPM, Week 1): −21.78 (5.44) %
UAS7 Change difference for rilzabrutinib vs. placebo LS Mean (95% CI) (400 mg QPM, Week 1): −3.54 (−8.57, 1.49)
UAS7 Change from baseline LS Mean (SE) (400 mg QPM, Week 1): −7.14 (1.53)
UAS7 % Change difference for rilzabrutinib vs. placebo LS Mean (95% CI) (400 mg QPM, Week 2): −6.70 %
UAS7 % Change from baseline LS Mean (SE) (400 mg QPM, Week 2): −24.47 (5.29) %
UAS7 Change difference for rilzabrutinib vs. placebo LS Mean (95% CI) (400 mg QPM, Week 2): −1.89 (−6.02, 2.24)
UAS7 Change from baseline LS Mean (SE) (400 mg QPM, Week 2): −7.82 (1.52)
UAS7 % Change difference for rilzabrutinib vs. placebo LS Mean (95% CI) (400 mg QPM, Week 3): −8.86 %
UAS7 % Change from baseline LS Mean (SE) (400 mg QPM, Week 3): −29.02 (5.48) %
UAS7 Change difference for rilzabrutinib vs. placebo LS Mean (95% CI) (400 mg QPM, Week 3): −2.44 (−6.74, 1.86)
UAS7 Change from baseline LS Mean (SE) (400 mg QPM, Week 3): −9.28 (1.58)
UAS7 % Change difference for rilzabrutinib vs. placebo LS Mean (95% CI) (400 mg QPM, Week 4): −7.91 %
UAS7 % Change from baseline LS Mean (SE) (400 mg QPM, Week 4): −28.65 (5.66) %
UAS7 Change difference for rilzabrutinib vs. placebo LS Mean (95% CI) (400 mg QPM, Week 4): −2.24 (−6.70, 2.22)
UAS7 Change from baseline LS Mean (SE) (400 mg QPM, Week 4): −9.30 (1.64)
UAS7 % Change difference for rilzabrutinib vs. placebo LS Mean (95% CI) (400 mg QPM, Week 5): 0.57 %
UAS7 % Change from baseline LS Mean (SE) (400 mg QPM, Week 5): −32.16 (5.50) %
UAS7 Change difference for rilzabrutinib vs. placebo LS Mean (95% CI) (400 mg QPM, Week 5): 0.16 (−4.35, 4.67)
UAS7 Change from baseline LS Mean (SE) (400 mg QPM, Week 5): −10.29 (1.65)
UAS7 % Change difference for rilzabrutinib vs. placebo LS Mean (95% CI) (400 mg QPM, Week 6): −6.33 %
UAS7 % Change from baseline LS Mean (SE) (400 mg QPM, Week 6): −33.42 (6.12) %
UAS7 Change difference for rilzabrutinib vs. placebo LS Mean (95% CI) (400 mg QPM, Week 6): −1.41 (−6.38, 3.55)
UAS7 Change from baseline LS Mean (SE) (400 mg QPM, Week 6): −10.66 (1.81)
UAS7 % Change difference for rilzabrutinib vs. placebo LS Mean (95% CI) (400 mg QPM, Week 7): −5.53 %
UAS7 % Change from baseline LS Mean (SE) (400 mg QPM, Week 7): −34.18 (5.81) %
UAS7 Change from baseline LS Mean (SE) (400 mg QPM, Week 7): −10.66 (1.72)
UAS7 % Change difference for rilzabrutinib vs. placebo LS Mean (95% CI) (400 mg QPM, Week 8): −4.03 %
